Measurements as given in paper PMC7338081.
No constants are given. Whether binding was seen depends on the method and setting. Binding seen in cells or lysates may run through a third protein. Some binding calls cover weakened binding; strength is not graded here.

By UniProt entry, the sequences of proteins in these tests, tags left out.
UniProt P18238: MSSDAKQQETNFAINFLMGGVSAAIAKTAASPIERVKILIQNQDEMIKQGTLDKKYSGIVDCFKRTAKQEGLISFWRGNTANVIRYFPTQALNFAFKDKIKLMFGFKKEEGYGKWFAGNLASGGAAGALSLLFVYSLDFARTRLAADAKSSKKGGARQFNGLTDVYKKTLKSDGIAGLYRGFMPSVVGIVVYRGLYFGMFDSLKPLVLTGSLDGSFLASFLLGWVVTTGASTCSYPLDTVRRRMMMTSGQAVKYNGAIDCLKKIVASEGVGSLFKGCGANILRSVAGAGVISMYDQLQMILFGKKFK
UniProt P04840: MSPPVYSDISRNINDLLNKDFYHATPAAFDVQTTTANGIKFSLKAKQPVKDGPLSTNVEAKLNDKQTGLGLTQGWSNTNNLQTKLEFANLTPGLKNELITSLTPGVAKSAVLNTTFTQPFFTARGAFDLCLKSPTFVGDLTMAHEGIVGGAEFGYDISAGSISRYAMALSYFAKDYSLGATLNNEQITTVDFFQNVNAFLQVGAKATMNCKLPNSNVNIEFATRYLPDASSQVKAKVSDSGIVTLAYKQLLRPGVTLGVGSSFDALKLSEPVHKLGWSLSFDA
UniProt P18239: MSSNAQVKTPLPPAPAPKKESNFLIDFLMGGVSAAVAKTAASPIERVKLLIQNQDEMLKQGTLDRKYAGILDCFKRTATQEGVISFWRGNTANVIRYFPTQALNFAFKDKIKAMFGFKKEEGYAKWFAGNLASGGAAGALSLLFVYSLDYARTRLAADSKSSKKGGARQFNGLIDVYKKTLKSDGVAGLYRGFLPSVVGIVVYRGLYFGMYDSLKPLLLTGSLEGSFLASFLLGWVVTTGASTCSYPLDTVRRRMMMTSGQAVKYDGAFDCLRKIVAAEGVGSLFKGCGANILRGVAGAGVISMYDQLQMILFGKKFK

Assays:
[1] = molecular target: Aac3 (S. cerevisiae (endogenous in YPH499 mitochondria)) (UniProt P18238); assay: cross-linking; XL-MS, qualitative data sets: purified mitochondria from yeast grown on glycerol or glucose medium, 5 mM BS3, 1 h, room temperature, 10 mM HEPES pH 7.5, 100 mM NaCl; trypsin, peptide SEC, LC-MS/MS, pLink 1, at least two CSMs and spectrum score of 4 or more
[2] = molecular target: T1, Cor1 (CIII) (S. cerevisiae (endogenous in YPH499 mitochondria)) (UniProt P07256); assay: as above
T1 sequence: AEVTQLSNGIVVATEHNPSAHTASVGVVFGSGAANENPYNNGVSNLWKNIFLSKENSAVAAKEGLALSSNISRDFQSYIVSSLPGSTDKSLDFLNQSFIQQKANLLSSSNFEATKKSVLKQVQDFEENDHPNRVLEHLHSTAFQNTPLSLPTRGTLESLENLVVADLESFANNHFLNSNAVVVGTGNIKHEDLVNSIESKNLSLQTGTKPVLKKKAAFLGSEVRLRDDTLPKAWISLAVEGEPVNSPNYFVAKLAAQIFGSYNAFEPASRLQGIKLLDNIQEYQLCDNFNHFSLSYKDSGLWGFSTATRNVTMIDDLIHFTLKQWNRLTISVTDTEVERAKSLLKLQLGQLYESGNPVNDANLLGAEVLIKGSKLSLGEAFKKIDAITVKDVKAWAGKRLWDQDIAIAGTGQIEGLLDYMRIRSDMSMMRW

[3] = molecular target: T2, Cox9 (CIV) (S. cerevisiae (endogenous in YPH499 mitochondria)) (UniProt P07255); assay: as above
T2 sequence: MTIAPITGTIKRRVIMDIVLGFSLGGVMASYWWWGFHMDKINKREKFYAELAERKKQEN

[4] = molecular target: T3, Min8 (S. cerevisiae (endogenous in YPH499 mitochondria)) (UniProt A5Z2X5); assay: as above
T3 sequence: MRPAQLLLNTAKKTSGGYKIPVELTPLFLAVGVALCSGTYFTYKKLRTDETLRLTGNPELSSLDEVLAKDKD

[5] = molecular target: T4, Ndi1, the internal NADH:ubiquinone oxidoreductase (S. cerevisiae (endogenous in YPH499 mitochondria)) (UniProt P32340); assay: as above
T4 sequence: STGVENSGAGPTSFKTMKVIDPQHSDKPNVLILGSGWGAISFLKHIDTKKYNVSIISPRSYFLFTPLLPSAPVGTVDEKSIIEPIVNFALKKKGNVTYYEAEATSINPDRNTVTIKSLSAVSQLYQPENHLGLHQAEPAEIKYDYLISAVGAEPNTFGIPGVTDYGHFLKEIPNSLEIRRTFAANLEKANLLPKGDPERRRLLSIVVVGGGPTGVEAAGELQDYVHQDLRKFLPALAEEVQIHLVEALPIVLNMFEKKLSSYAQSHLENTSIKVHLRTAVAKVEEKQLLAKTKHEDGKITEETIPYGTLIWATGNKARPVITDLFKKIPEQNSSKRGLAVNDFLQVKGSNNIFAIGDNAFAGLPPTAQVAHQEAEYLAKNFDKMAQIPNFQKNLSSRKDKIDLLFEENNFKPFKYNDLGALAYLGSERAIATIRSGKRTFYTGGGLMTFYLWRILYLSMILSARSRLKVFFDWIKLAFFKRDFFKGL

[6] = molecular target: T5, Sdh2 (CII) (S. cerevisiae (endogenous in YPH499 mitochondria)) (UniProt P21801); assay: as above
T5 sequence: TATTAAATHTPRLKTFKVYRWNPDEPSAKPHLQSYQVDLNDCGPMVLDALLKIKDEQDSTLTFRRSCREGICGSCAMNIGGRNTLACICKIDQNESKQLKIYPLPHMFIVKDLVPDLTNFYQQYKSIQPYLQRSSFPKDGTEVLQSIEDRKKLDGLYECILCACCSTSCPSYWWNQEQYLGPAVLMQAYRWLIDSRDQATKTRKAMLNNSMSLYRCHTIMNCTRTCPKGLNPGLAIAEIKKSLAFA

[7] = molecular target: T6, Nde1, the external NADH:ubiquinone oxidoreductase (S. cerevisiae (endogenous in YPH499 mitochondria)) (UniProt P40215); assay: cross-linking; quantitative XL-MS: purified mitochondria from glycerol- and glucose-grown yeast cross-linked with 5 mM BS3 or BS3-d4 in a label-swap experiment, mixed 1:1, quantified by XiQ on MS1 level
T6 sequence: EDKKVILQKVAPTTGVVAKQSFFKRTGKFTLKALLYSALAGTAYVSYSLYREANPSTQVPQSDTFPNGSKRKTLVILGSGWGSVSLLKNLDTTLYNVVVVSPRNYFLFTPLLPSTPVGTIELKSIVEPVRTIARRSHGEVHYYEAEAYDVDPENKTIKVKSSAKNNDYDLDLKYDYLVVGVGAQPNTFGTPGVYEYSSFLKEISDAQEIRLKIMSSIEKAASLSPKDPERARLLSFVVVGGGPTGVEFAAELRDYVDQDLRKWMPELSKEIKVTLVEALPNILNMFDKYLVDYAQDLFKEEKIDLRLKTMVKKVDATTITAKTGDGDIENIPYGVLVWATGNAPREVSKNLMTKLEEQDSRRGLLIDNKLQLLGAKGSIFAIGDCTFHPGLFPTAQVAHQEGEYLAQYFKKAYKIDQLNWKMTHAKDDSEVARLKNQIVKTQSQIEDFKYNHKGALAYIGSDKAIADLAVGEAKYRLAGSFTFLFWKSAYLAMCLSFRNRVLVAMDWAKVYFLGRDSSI

[8] = molecular target: T6, Nde1, the external NADH:ubiquinone oxidoreductase (S. cerevisiae (endogenous in YPH499 mitochondria)); assay: cross-linking; XL-MS, qualitative data sets: purified mitochondria from yeast grown on glycerol or glucose medium, 5 mM BS3, 1 h, room temperature, 10 mM HEPES pH 7.5, 100 mM NaCl; trypsin, peptide SEC, LC-MS/MS, pLink 1, at least two CSMs and spectrum score of 4 or more
[9] = molecular target: T7, Phb1 (S. cerevisiae (endogenous in YPH499 mitochondria)) (UniProt P40961); assay: as above
T7 sequence: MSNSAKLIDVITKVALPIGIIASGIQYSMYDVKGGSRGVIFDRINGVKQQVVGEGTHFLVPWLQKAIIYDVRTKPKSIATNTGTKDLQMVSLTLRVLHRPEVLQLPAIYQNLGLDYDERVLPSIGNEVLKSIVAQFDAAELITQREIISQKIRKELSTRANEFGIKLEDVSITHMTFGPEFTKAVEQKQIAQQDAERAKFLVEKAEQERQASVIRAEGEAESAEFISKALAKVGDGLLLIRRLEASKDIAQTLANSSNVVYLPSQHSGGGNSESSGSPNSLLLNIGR

[10] = molecular target: Por1 (S. cerevisiae (endogenous in YPH499 mitochondria)) (UniProt P04840); assay: as above
[11] = molecular target: T8, Cox12, a subunit of CIV (S. cerevisiae (endogenous in YPH499 mitochondria)) (UniProt Q01519); assay: as above
T8 sequence: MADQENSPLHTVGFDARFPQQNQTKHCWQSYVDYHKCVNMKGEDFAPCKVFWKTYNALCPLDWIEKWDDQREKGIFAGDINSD

[12] = molecular target: T9, Rcf2 (S. cerevisiae (endogenous in YPH499 mitochondria)) (UniProt P53721); assay: as above
T9 sequence: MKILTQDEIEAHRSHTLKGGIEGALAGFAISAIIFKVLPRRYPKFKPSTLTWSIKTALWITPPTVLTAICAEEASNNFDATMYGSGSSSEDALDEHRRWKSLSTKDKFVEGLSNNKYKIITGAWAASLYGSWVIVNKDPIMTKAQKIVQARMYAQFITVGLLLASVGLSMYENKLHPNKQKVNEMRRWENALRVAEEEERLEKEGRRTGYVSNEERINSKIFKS

## Pet9, the major ADP/ATP carrier (from UniProt P18239 1-318)
[1]
  binding: binds
[2]
  binding: binds
[3]
  binding: binds
[4]
  binding: binds
[5]
  binding: binds
[6]
  binding: binds

B1: Om45 (protein, UniProt P16547 1-393)
chain: MSSRIIVGSAALAAAITASIMVREQKAKGQRREGNVSAYYNGQEYGSSAPPQLGKLHNIKQGIKEDALSLKDALLGVSQKAREEAPKVTKRVISPEEDAQTRKQLGQKAKDSSSQSIFNWGFSEAERRKAIAIGEFDTAKKRFEEAVDRNEKELLSTVMREKKAALDRASIEYERYGRARDFNELSDKLDQQERNSNPLKRLLKNNTGDANTEEAAARSVQGWGDTAQEFGREELEEAKRNASSEPSEAQKRLDELKKIKEKGWFGYNKGEQSEQQIAERVARGLEGWGETAAQLSKDEMDDLRWNYENSKKQLDKNVSDAMDSLSKAKEDLKQYGSHWWSGWTSKVDNDKQALKDEAQKKYDEALKKYDEAKNKFKEWNDKGDGKFWSSKKD
[7]
  binding: binds
[8]
  binding: binds
[9]
  binding: binds
[10]
  binding: binds

B2: Min8 (protein, UniProt A5Z2X5 1-72)
chain: MRPAQLLLNTAKKTSGGYKIPVELTPLFLAVGVALCSGTYFTYKKLRTDETLRLTGNPELSSLDEVLAKDKD
[11]
  binding: binds
[12]
  binding: no binding
